No constants are given. Whether binding was seen depends on the method and setting. Some binding calls cover weakened binding; strength is not graded here.
Legend:
soluble CR2/CD21 = soluble CR2/CD21 (UniProt P20023); test: ELISA; competitive: 100 ng of soluble CR2/CD21 coated; C3d (100 ng/well) preincubated with serial dilutions of CIP in PBS; anti-C3 goat pAb; both purified
[1] = target: CR2/CD21 on B cells (human (endogenous in Raji)) (UniProt P20023); test: flow cytometry on cells; bC3d–SA, preincubated or not with CIP at 1, 3, 6 and 9 μM, added to Raji cells, 15 min at 37°C; anti-C3d mAb and phycoerythrin-labeled secondary antibody; only the binder purified
C3d (human) = C3d (human) (UniProt P01024); test: ELISA; 250 ng of C3d coated; CIP or CD21 in buffer with increasing NaCl (0-2.5 M); anti-CIP or anti-CD21 serum; both purified

Amino acid sequences for entries named in this document (tags omitted). A change or cut given only in a name is not applied to a line headed by its entry. Residues count along the entry.
UniProt P20023: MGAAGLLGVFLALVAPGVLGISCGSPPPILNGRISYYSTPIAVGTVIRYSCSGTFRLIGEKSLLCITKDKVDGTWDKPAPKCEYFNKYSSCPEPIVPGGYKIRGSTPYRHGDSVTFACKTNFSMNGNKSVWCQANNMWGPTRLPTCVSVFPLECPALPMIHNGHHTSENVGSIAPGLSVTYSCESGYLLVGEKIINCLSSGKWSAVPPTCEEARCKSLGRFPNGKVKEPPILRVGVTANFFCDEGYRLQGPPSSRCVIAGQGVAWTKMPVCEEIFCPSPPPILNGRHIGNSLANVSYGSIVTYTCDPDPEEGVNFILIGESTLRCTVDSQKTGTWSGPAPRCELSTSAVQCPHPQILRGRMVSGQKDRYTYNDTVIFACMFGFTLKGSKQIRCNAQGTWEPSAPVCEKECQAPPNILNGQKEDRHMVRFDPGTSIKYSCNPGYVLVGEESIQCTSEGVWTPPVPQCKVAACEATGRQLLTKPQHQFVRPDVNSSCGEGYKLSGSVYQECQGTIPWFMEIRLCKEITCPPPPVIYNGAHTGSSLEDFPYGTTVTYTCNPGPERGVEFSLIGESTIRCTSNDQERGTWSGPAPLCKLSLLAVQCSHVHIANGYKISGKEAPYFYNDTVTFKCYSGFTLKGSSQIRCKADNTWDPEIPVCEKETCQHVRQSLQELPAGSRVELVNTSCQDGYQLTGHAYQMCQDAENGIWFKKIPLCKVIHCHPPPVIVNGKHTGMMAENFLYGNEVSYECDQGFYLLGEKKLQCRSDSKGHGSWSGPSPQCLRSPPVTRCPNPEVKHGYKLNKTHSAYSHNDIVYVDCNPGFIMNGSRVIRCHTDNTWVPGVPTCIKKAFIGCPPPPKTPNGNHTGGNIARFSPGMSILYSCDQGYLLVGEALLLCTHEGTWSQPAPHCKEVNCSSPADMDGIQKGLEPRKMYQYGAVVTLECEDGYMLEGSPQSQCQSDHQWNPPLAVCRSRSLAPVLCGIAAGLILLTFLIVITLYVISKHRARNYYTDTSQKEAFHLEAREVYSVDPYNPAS
CR2/CD21 on B cells (human (endogenous in Raji)): residues 21-1033 of P20023
UniProt P01024, residues 1002-1303: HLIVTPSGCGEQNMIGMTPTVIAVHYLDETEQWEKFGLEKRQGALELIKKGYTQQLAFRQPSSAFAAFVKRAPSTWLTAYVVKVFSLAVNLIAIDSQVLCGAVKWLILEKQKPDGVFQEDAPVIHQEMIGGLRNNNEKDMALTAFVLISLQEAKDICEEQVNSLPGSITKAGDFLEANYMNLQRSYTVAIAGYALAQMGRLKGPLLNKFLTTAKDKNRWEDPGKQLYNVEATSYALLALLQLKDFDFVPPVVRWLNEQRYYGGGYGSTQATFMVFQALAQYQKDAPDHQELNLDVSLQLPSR

C3d (from UniProt P01024 1002-1303) (domain or fragment)
binding (soluble CR2/CD21): binds

biotinylated C3d preincubated with streptavidin (C3d–biotin–SA) (from UniProt P01024 1002-1303) (complex)
binding [1]: binds

soluble CR2/CD21 (from UniProt P20023 21-971) (receptor)
binding (C3d (human)): binds
